Some peptides are written in HELM: one residue between dots, names in brackets for other building blocks, links after the first $.
Assay: general procedure: Fmoc solid-phase peptide synthesis; Fmoc-Phe Wang (100–200 mesh, 0.69 mM/g, Novabiochem) or MBHA Rink-Amide peptide resin (100–200 mesh)
Details: whole synthesis, analytical RP-HPLC, Vydac C18 column

Substance | final HPLC purity [%]
PEPTIDE1{Y.[Inp].L.D.L.F.[am]}$$$$V2.0 | 98
PEPTIDE1{Y.P.L.D.L.F}$$$$V2.0 | 98
PEPTIDE1{Y.P.L.D.L.F.[am]}$$$$V2.0 | 95
PEPTIDE1{Y.[Inp].L.D.L.F}$$$$V2.0 | 97
PEPTIDE1{[Dmt].[RNip].L.D.L.F}$$$$V2.0 | 98
PEPTIDE1{Y.[RNip].L.D.L.F}$$$$V2.0 | 98
PEPTIDE1{[Dmt].P.L.D.L.F}$$$$V2.0 | 95
PEPTIDE1{[Dmt].[Inp].L.D.L.F}$$$$V2.0 | 98

From publication PMC10901950 (Neurochemical Research, 2023)
